Laboratory results from US9192589B2, “Chalcones as enhancer of antimicrobial agents” (priority 2009, dated 2015).
At least one structure is not confirmed: it was looked up by name or label, or the drawing left a doubt.

System: Staphylococcus aureus SA-K2192 (TetK overexpressing)
Assay: Checkerboard MIC of tetracycline alone and in combination with chalcone
Format: cell-based

`CN(C)[C@@H]1C(O)=C(C(N)=O)C(=O)[C@@]2(O)C(O)=C3C(=O)c4c(O)cccc4[C@@](C)(O)[C@H]3C[C@@H]12` [tetracycline] was tested, and the “reduction in MIC of tetracycline” value (in combination with CK-4 at 50 μg/ml) was “Up to eight-fold” and the “reduction in MIC of tetracycline” value (in combination with CK-14 at 50 μg/ml) was “Up to four-fold”.
